PubChem BioAssay AID1259425 | University of Nebraska Medical Center, 2018

Test: 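Compare each knockdown with KSR1 silencing using changes in marker transcripts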 (primary screen)
Cells: HCT116 human colon cancer cells
Reagents: siRNA pool against human genes, 50 nM siRNA
Read-out: 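After 50 nM siRNA pool, branched-DNA assay measures six marker transcripts per well, minus blank, normalised to the geometric mean of two housekeeping transcripts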
Direction: BNIP3L mRNA: higher = more BNIP3L transcript after knockdown; NDRG1 mRNA: higher = more NDRG1 transcript after knockdown; BNIP3 mRNA: higher = more BNIP3 transcript after knockdown; ALDOC mRNA: higher = more ALDOC transcript after knockdown; ACSL5 mRNA: higher = more ACSL5 transcript after knockdown
The deposit covers about 14,000 reagents; this is an unselected part. Reagents against one gene are numbered here. Not given: the time to read-out.

gene	reagent no.	BNIP3L mRNA, set 1	NDRG1 mRNA, set 1	BNIP3 mRNA, set 1	ALDOC mRNA, set 1	ACSL5 mRNA, set 1
CDK5 (cyclin dependent kinase 5)	1	0.109	0.116	0.0999	0.0221	0.11
MAGED2 (MAGE family member D2)	1	0.0591	0.226	0.22	0.0306	0.161
RALGPS2 (Ral GEF with PH domain and SH3 binding motif 2)	1	0.0793	0.0629	0.209	0.0212	0.102
SPAM1 (sperm adhesion molecule 1)	1	0.0468	0.0799	0.23	0.0113	0.14
EMC3 (ER membrane protein complex subunit 3)	1	0.109	0.177	0.345	0.06	0.139
F10 (coagulation factor X)	1	0.12	0.187	0.286	0.0247	0.187
KCNK13 (potassium two pore domain channel subfamily K member 13)	1	0.136	0.549	0.277	0.033	0.201
REG1B (regenerating family member 1 beta)	1	0.0847	0.179	0.27	0.0201	0.128
C1orf159 (chromosome 1 open reading frame 159)	1	0.119	0.274	0.29	0.0181	0.0877
ZNF281 (zinc finger protein 281)	1	0.0536	0.127	0.263	0.00815	0.218
SLC4A4	1	0.0805	0.173	0.28	0.00965	0.138
ARID3A (AT-rich interaction domain 3A)	1	0.214	0.404	1.06	0.0545	0.126
PPARA (peroxisome proliferator activated receptor alpha)	1	0.0542	0.0597	0.185	0.0175	0.151
PPARA (peroxisome proliferator activated receptor alpha)	2	0.136	0.461	0.258	0.0384	0.329
SPARCL1 (SPARC like 1)	1	0.162	0.14	0.282	0.00176	0.214
OR51E1 (olfactory receptor family 51 subfamily E member 1)	1	0.249	0.175	0.288	0.0629	0.327
ECM2 (extracellular matrix protein 2)	1	0.0891	0.0748	0.345	0.0235	0.155
TRABD (TraB domain containing)	1	0.11	0.118	0.334	0.0393	0.133
TREH (trehalase)	1	0.149	0.153	0.319	0.01	0.123
SUCNR1 (succinate receptor 1)	1	0.114	0.273	0.305	0.0275	0.207
COL9A3 (collagen type IX alpha 3 chain)	1	0.125	1.35	0.308	0.0158	0.183
DENR (density regulated re-initiation and release factor)	1	0.13	0.642	0.514	0.0351	0.387
CTSW (cathepsin W)	1	0.0273	0.0913	0.259	0.00165	0.15
ADPRH (ADP-ribosylarginine hydrolase)	1	0.0924	0.586	0.313	0.0365	0.185
OCIAD1 (OCIA domain containing 1)	1	0.19	0.504	0.295	0.0475	0.317
NFIB (nuclear factor I B)	1	0.0709	0.26	0.29	0.0087	0.317
COMT (catechol-O-methyltransferase)	1	0.117	0.531	0.175	0.0291	0.188
MIF (macrophage migration inhibitory factor)	1	0.0905	0.084	0.344	0.0229	0.107
JAM2 (junctional adhesion molecule 2)	1	0.115	0.143	0.253	0.0333	0.173
FCAMR (Fc alpha and mu receptor)	1	0.257	0.418	0.438	0.0575	0.548
DNAJC17 (DnaJ heat shock protein family (Hsp40) member C17)	1	0.102	0.58	0.372	0.0238	0.318
GABRG3 (gamma-aminobutyric acid type A receptor subunit gamma3)	1	0.0861	0.584	0.31	0.0243	0.309
DNAJC4 (DnaJ heat shock protein family (Hsp40) member C4)	1	0.13	0.139	0.476	0.0274	0.0847

Entries above whose target name starts with D or d (3):
gene	reagent no.	BNIP3L mRNA, set 1	NDRG1 mRNA, set 1	BNIP3 mRNA, set 1	ALDOC mRNA, set 1	ACSL5 mRNA, set 1
DENR (density regulated re-initiation and release factor)	1	0.13	0.642	0.514	0.0351	0.387
DNAJC17 (DnaJ heat shock protein family (Hsp40) member C17)	1	0.102	0.58	0.372	0.0238	0.318
DNAJC4 (DnaJ heat shock protein family (Hsp40) member C4)	1	0.13	0.139	0.476	0.0274	0.0847

Further entries follow:
gene	reagent no.	BNIP3L mRNA, set 1	NDRG1 mRNA, set 1	BNIP3 mRNA, set 1	ALDOC mRNA, set 1	ACSL5 mRNA, set 1
RABGGTA (Rab geranylgeranyltransferase subunit alpha)	1	0.0759	0.48	0.376	0.0424	0.342
FKBP8 (FKBP prolyl isomerase 8)	1	0.0528	0.04	0.282	0.0331	0.114
ZFYVE26 (zinc finger FYVE-type containing 26)	1	0.175	0.798	0.355	0.0594	0.0936
CELSR1 (cadherin EGF LAG seven-pass G-type receptor 1)	1	0.176	0.283	0.247	0.0652	0.172
TAF9 (TATA-box binding protein associated factor 9)	1	0.106	0.187	0.457	0.0113	0.163
PRKRIP1 (PRKR interacting protein 1)	1	0.242	0.29	0.287	0.0595	0.143
MAP1A (microtubule associated protein 1A)	1	0.136	0.188	0.428	0.0257	0.0921
SPCS2 (signal peptidase complex subunit 2)	1	0.147	0.203	0.293	0.0421	0.148
FUCA1 (alpha-L-fucosidase 1)	1	0.0912	0.154	0.263	0.0292	0.162
DAD1 (defender against cell death 1)	1	0.0888	0.08	0.289	0.0104	0.138
PCSK1N (proprotein convertase subtilisin/kexin type 1 inhibitor)	1	0.163	0.347	0.268	0.0242	0.249
DNASE1 (deoxyribonuclease 1)	1	0.0921	0.266	0.289	0.0209	0.197
HGF (hepatocyte growth factor)	1	0.0774	0.137	0.27	0.0194	0.129
RGS8 (regulator of G protein signaling 8)	1	0.128	0.847	0.382	0.0648	0.24
PGAP4 (post-GPI attachment to proteins GalNAc transferase 4)	1	0.109	0.216	0.222	0.0199	0.216
COX17 (cytochrome c oxidase copper chaperone COX17)	1	0.207	0.143	0.319	0.0255	0.105
WDR77 (WD repeat domain 77)	1	0.0663	0.161	0.309	0.034	0.16
GNAT2 (G protein subunit alpha transducin 2)	1	0.101	0.104	0.303	0.0188	0.202
IFNA5 (interferon alpha 5)	1	0.077	0.0902	0.269	0.026	0.0761
METTL5 (methyltransferase 5, N6-adenosine)	1	0.166	0.0895	0.272	0.0417	0.0283
EFNB1 (ephrin B1)	1	0.0632	0.226	0.25	0.0155	0.154
ANKIB1 (ankyrin repeat and IBR domain containing 1)	1	0.132	0.213	0.406	0.0712	0.458
FAM20A (FAM20A golgi associated secretory pathway pseudokinase)	1	0.0825	0.34	0.259	0.0292	0.0825
APOL1 (apolipoprotein L1)	1	0.169	0.333	0.257	0.0377	0.149
SCOC (short coiled-coil protein)	1	0.0733	0.22	0.282	0.0212	0.236
ZNF823 (zinc finger protein 823)	1	0.106	0.138	0.396	0.0104	0.156
RAI2 (retinoic acid induced 2)	1	0.133	0.306	0.215	0.00513	0.142
MTIF2 (mitochondrial translational initiation factor 2)	1	0.129	0.14	0.47	0.0401	0.127
BARX2 (BARX homeobox 2)	1	0.0987	0.19	0.29	0.0156	0.117
DAGLA (diacylglycerol lipase alpha)	1	0.109	0.391	0.188	0.0371	0.101
